Test results published in article PMC5432859.
These are yes or no findings as the source states them, for the method shown. Binding seen in cells or lysates may run through a third protein. Binding can be weak; no strength is given. Tags and fused reporters may be left off the sequences shown.

Molecular target: feline A3Z2Z3 tagged with HA (domestic cat (Felis catus))
Test: co-IP; HEK293T cotransfected with His-tagged FIV Vif (4 ug) and feline A3Z2Z3-HA (2 ug); MG132 10 uM from 24 h after transfection; lysis buffer 150 mM NaCl, 1% Triton X-100 in PBS; lysates mixed with anti-HA magnetic beads, 4°C, 3 h; washed with RIPA buffer and PBS; Western blotting

B1: His-tagged Vif of FIV subtype A (strain Petaluma) (protein, UniProt P16089 1-251)
chain: MSEEDWQVSRRLFAVLQGGVNSAMLYISRLPPDEREKYKKDFKKRLFDTETGFIKRLRKAEGIKWSFHTRDYYIGYVREMVAGSTTSLSLRMYIYISNPLWHSQYRPGLKNFNKEWPFVNMWIKTGFMWDDIEKQNICIGGEVSPGWGPGMVGIAIKAFSCGERKIEATPVMIIRGEIDPKKWCGDCWNLMCLRNSPPKTLQRLAMLACGVPAKKWRGCCNQRFVSPYRTPADLEVIQSKPSWNLLWSGEL
binding: binds
